# Data taken from PubChem BioAssay AID540256 (National Center for Advancing Translational Sciences (NCATS), 2011).
# Among all 300,000 compounds or so, about 3,700 (1.2%) were called active. This list was built around the results that the source calls inconclusive (neither active nor inactive); the mix of calls is not that of the screen. Calls come from the whole dose curve; tested in HEK293 cells. A potency beside an inconclusive call is a rough fit, not a confirmed value.
# Test: qHTS for Inhibitors of binding or entry into cells for Lassa Virus; note: nearly all actives have a fitted effect of over 50% in size
# Conditions: Lassa virus pseudotype entry inhibition, cell reporter; activity change, negative = inhibition: at 37.9 µM (top of the series) unless noted
# % is set by controls: 0 for no effect and ±100 for the full control effect; potency is the fitted concentration of half-maximal effect.
SMILES,Potency,"activity change, negative = inhibition"
Cc1c(C(=O)/C=C/N(C)C)nnn1-c1ccc(Cl)cc1Cl,inactive,
Cc1ccc(S(=O)(=O)Nc2cncnc2NS(=O)(=O)c2ccc(C)cc2)cc1,"inconclusive: 1.26 µM [inhibitor, partial curve, poor fit]",
COc1ccc(CCn2c(C)nc3c(c(=O)c4ccccc4n3C)c2=O)cc1,"inconclusive: 35.5 µM [inhibitor, single point]",
[O-]C(=C(C(=S)Nc1cccc2ccccc12)[n+]1ccccc1)c1ccc2c(c1)OCCO2,inactive,
Nc1nnc(/C=C/c2ccccc2Cl)s1,"inconclusive: 11.2 µM [inhibitor, partial curve, poor fit]",
Cc1cccc(C(=O)Oc2ccc(/C=N/NC(=O)c3ccc(O)cc3)cc2)c1,"inconclusive: 0.708 µM [inhibitor, single point]",
O=c1c2ccccc2nc(SCc2cn3ccsc3n2)n1-c1ccc(F)cc1,active: 11.2 µM,
Cc1cc(C(=O)N2CCN(c3ncccn3)CC2)nn1C,"inconclusive: 6.31 µM [activator, single point]",
CC(CP(=O)(O)O)NC(=O)Cc1ccccc1 (centres undefined),"inconclusive: 20.6 µM [inhibitor, partial curve, poor fit]",
O=[N+]([O-])c1ccc(Cl)c(S(=O)(=O)Nc2ccc(-c3ccc(N4CCCC4)nn3)cc2)c1,inactive,
O=C(CSc1nc2ccsc2c(=O)n1-c1ccc(Cl)cc1)NCc1ccc(Cl)cc1,"inconclusive: 35.5 µM [activator, single point]",
Cc1c(C(=O)N(C)CCCCN2CCOCC2)oc2c(F)cccc12,"inconclusive: 20 µM [activator, partial curve, poor fit]",
CCOc1ccc(CCNC(=O)c2cc(=O)[nH]c3ccc(S(=O)(=O)N(CC)CC)cc23)cc1OCC,inactive,
CCCCNC(=O)CSc1nnc(NC(C)=O)s1,inactive,
CC(NC(=O)CCCc1ccccc1)c1ccncc1 (centres undefined),"inconclusive: 0.398 µM [inhibitor, partial curve, poor fit]",
O=C(CN1C(=O)c2ccccc2S1(=O)=O)c1ccc(O)c(O)c1,"inconclusive: 22.4 µM [inhibitor, partial curve, poor fit]",
O=C(CNC(c1ccccc1)c1ccccc1)Nc1ccc(F)cc1,"inconclusive: 0.794 µM [inhibitor, single point]",
O=C(Nc1ccccc1-c1nc2ccccc2s1)c1ccc(F)cc1,"inconclusive: 3.16 µM [inhibitor, single point]",
Clc1ccc(-c2cc3ncc4c(n3n2)-c2ccccc2OC4)cc1,"inconclusive: 3.16 µM [activator, full curve, poor fit]",
CNS(=O)(=O)c1cccc(C(=O)OCCCOC(=O)c2cccc(S(=O)(=O)NC)c2)c1,"inconclusive: 35.5 µM [inhibitor, single point]",
NNC(=O)c1cc(NS(=O)(=O)c2cccs2)cc(NS(=O)(=O)c2cccs2)c1,"inconclusive: 0.112 µM [inhibitor, full curve, poor fit]",
COc1ccc(CCNc2nc(C)nc3c2oc2ccccc23)cc1OC,active: 12.6 µM,
O=C(Cc1ccccc1)N/N=C/c1cc(Br)cs1,"inconclusive: 1.26 µM [activator, single point]",
COCCNC(=S)c1ccc(OC)cc1,"inconclusive: 11.2 µM [activator, partial curve, poor fit]",
Cc1ccc(-c2nnc3n2N=C(c2ccccc2Br)CS3)cc1,"inconclusive: 12.6 µM [inhibitor, partial curve, poor fit]",

# Ordered by count of non-hydrogen atoms (low to high): 14 of the compounds above.
SMILES,Potency,"activity change, negative = inhibition"
Nc1nnc(/C=C/c2ccccc2Cl)s1,"inconclusive: 11.2 µM [inhibitor, partial curve, poor fit]",
CC(CP(=O)(O)O)NC(=O)Cc1ccccc1 (centres undefined),"inconclusive: 20.6 µM [inhibitor, partial curve, poor fit]",
O=C(Cc1ccccc1)N/N=C/c1cc(Br)cs1,"inconclusive: 1.26 µM [activator, single point]",
CC(NC(=O)CCCc1ccccc1)c1ccncc1 (centres undefined),"inconclusive: 0.398 µM [inhibitor, partial curve, poor fit]",
Cc1c(C(=O)/C=C/N(C)C)nnn1-c1ccc(Cl)cc1Cl,inactive,
Cc1ccc(-c2nnc3n2N=C(c2ccccc2Br)CS3)cc1,"inconclusive: 12.6 µM [inhibitor, partial curve, poor fit]",
Clc1ccc(-c2cc3ncc4c(n3n2)-c2ccccc2OC4)cc1,"inconclusive: 3.16 µM [activator, full curve, poor fit]",
O=C(CNC(c1ccccc1)c1ccccc1)Nc1ccc(F)cc1,"inconclusive: 0.794 µM [inhibitor, single point]",
COc1ccc(CCNc2nc(C)nc3c2oc2ccccc23)cc1OC,active: 12.6 µM,
Cc1cccc(C(=O)Oc2ccc(/C=N/NC(=O)c3ccc(O)cc3)cc2)c1,"inconclusive: 0.708 µM [inhibitor, single point]",
O=C(CSc1nc2ccsc2c(=O)n1-c1ccc(Cl)cc1)NCc1ccc(Cl)cc1,"inconclusive: 35.5 µM [activator, single point]",
O=[N+]([O-])c1ccc(Cl)c(S(=O)(=O)Nc2ccc(-c3ccc(N4CCCC4)nn3)cc2)c1,inactive,
[O-]C(=C(C(=S)Nc1cccc2ccccc12)[n+]1ccccc1)c1ccc2c(c1)OCCO2,inactive,
CCOc1ccc(CCNC(=O)c2cc(=O)[nH]c3ccc(S(=O)(=O)N(CC)CC)cc23)cc1OCC,inactive,

# More records.

SMILES,Potency,"activity change, negative = inhibition"
COc1ccc(NC(=O)c2csnn2)cc1Cl,inactive,
COC(=O)c1ccc(C2C(Oc3ccc(OC)cc3)C(=O)N2CCc2ccc(OC)c(OC)c2)cc1 (centres undefined),"inconclusive: 35.5 µM [inhibitor, partial curve, poor fit]",
O=C(CN1CCOCC1)N/N=C/c1ccc(-c2ccc(C(=O)O)cc2)o1,inactive,
N=c1ccn(Cc2c(Cl)cccc2Cl)cc1,inactive,
CC(=O)Oc1ccccc1/C=C/c1nc2ccccc2c(=O)o1,active: 2 µM,
COc1cc(Nc2ncc3c(n2)CCN(Cc2ccc(OC(C)C)c(OC)c2)C3)cc(OC)c1,inactive,
CC(Cc1cccs1)NC(=O)Nc1cccc(Cl)c1 (centres undefined),inactive,
COc1ccc(NC(=O)N2CCC(c3nc4ccccc4[nH]3)CC2)cc1,inactive,
CC(C)C(=O)Nc1cccc(NC(=O)c2cccnc2)c1,inactive,
CCc1cccc2c(C(=O)COC(=O)c3cccc(S(=O)(=O)N(C)C4CCCCC4)c3)c[nH]c12,"inconclusive: 16.4 µM [inhibitor, partial curve, poor fit]",
CN(C)c1ccc(C(C(=O)NCC2CCCO2)N(C(=O)c2snc(C(N)=O)c2N)c2ccc3c(c2)OCO3)cc1 (centres undefined),"inconclusive: 10 µM [inhibitor, partial curve]",
O=[N+]([O-])c1cc(Br)c(O)c(/C=N/Nc2nnnn2-c2cccc3ccccc23)c1,inactive,
CN1CCSc2ccc(C(=O)Nc3ccc(Cl)cc3)cc21,inactive,
Cc1onc(-c2ccccc2)c1C(=O)Nc1cc(C(F)(F)F)ccc1N1CCOCC1,"inconclusive: 35.5 µM [inhibitor, single point]",
C=CCn1c(=O)c2c(nc(-c3ccc(S(=O)(=O)O)cc3)n2C)n(C)c1=O,"inconclusive: 0.0058 µM [activator, full curve, poor fit]",
Cc1cc(-n2c(C)cc(C(=O)COc3ccccc3[N+](=O)[O-])c2C)no1,inactive,
COC(=O)c1ccc(/C=C/C(=O)OCC(=O)Nc2cc(C)on2)cc1,,inconclusive: 0.07% [activator] [at 46.1 µM]
COC(=O)c1ccc(/C=N/NC(=O)CNc2cccc(C)c2)cc1,"inconclusive: 20 µM [inhibitor, partial curve, poor fit]",
CCOc1ccc(NC(=O)C(=S)NC2CCCCC2)cc1,inactive,
O=C(Nc1ccccc1C(=O)O)c1ccccc1,inactive,
Cc1ccc(-c2nc(NCc3ccco3)c3ccccc3n2)cc1,"inconclusive: 25.9 µM [activator, single point]",
O=C(c1cc2ccccc2o1)N1CCN(Cc2ccccc2)CC1,"inconclusive: 3.98 µM [inhibitor, full curve, poor fit]",
Cc1ccccc1OC(=O)c1cc(-c2ccc3c(c2)OCCO3)on1,inactive,
O=C(Nc1cccn(Cc2c(Cl)cccc2Cl)c1=O)c1ccc(Cl)cc1Cl,inactive,
COC(=O)c1c(C)n(-c2ccccc2)c2ccc(O)cc12,"inconclusive: 29.1 µM [inhibitor, single point]",

SMILES,Potency,"activity change, negative = inhibition"
O=C(Nc1ccccc1C(=O)NC1CCCCC1)c1ccco1,inactive,
O=C(COc1ccc(Cl)cc1)Nc1nc(-c2cccs2)cs1,"inconclusive: 35.5 µM [inhibitor, single point]",
CCOC(=O)c1c(NC(N)=O)sc(C)c1C,inactive,
O=C(OCc1ccccc1)N1CCCC1/C=C/CN1CCOCC1 (centres undefined),"inconclusive: 35.5 µM [inhibitor, single point]",
O=C(NCc1ncc(C(F)(F)F)cc1Cl)Nc1ccccc1,"inconclusive: 14.1 µM [activator, partial curve, poor fit]",
COc1ccc(/C=C(\NC(=O)c2ccccc2)C(=O)N/N=C/c2ccncc2)cc1,"inconclusive: 1.83 µM [inhibitor, full curve]",
CCCCC(=O)Nc1cc2nn(-c3ccc(OC)cc3)nc2cc1C,"inconclusive: 4.61 µM [activator, full curve, poor fit]",
Cc1ccc(NC(=O)N2CC3CCCN3c3ccccc32)cc1Cl (centres undefined),inactive,
Cc1nc(NC(=O)c2csc3ccccc23)sc1C,"inconclusive: 32.6 µM [inhibitor, single point]",
COC(=O)c1cccc(NC(=O)CC2C(=O)NCCN2C(=O)Nc2ccccc2)c1 (centres undefined),"inconclusive: 1.26 µM [inhibitor, single point]",
COc1ccc(S(=O)(=O)N2CCN(c3ccccc3)CC2)cc1C(=O)N1CCCC1,"inconclusive: 7.08 µM [inhibitor, partial curve, poor fit]",
O=C(c1noc2c1CCCCC2)N1CCN(c2cccc(Cl)c2)CC1,inactive,
COc1ccccc1CCNCc1cc2c(cc1[N+](=O)[O-])OCO2,"inconclusive: 6.31 µM [activator, single point]",
O=C(OCc1cc(=O)n2nc(-c3cccs3)sc2n1)c1cccc(F)c1,inactive,
CC(C)CCN(C(=O)Nc1ccc(Cl)c(Cl)c1)C1CCN(C(C)C)CC1,inactive,
CC(C)Cc1nc(Nc2ccccc2C#N)c2nnn(Cc3ccccc3)c2n1,"inconclusive: 31.6 µM [inhibitor, single point]",
O=C(CCCCC(=O)NCc1cccs1)NCc1cccs1,inactive,
COc1cccc(C(=O)N(C)C(C)c2nc3ccccc3s2)c1 (centres undefined),inactive,
Oc1ccc(Cn2ccnc2)c2cccnc12,"inconclusive: 20 µM [inhibitor, partial curve, poor fit]",
Cc1ccc(NC(=O)[C@@H](NC(=O)c2cccc(S(=O)(=O)N3CCOCC3)c2)C(C)C)cc1C,inactive,
O=C(CCC1CCCCC1=O)c1ccccc1 (centres undefined),inactive,
COc1cc2nc3occc3c(OC)c2cc1OC,"inconclusive: 4.61 µM [inhibitor, single point]",
CC(=O)c1ccc(N2CCN(C(=O)c3cc(S(=O)(=O)N4CCCCCC4)cn3C)CC2)cc1,inactive,
CCOC(=O)c1oc2nc(CC(C)C)c3c(c2c1N)CCCC3,"inconclusive: 35.5 µM [inhibitor, single point]",
